This passage reports binding results from PMC5542437, “Assembly and stoichiometry of the core structure of the bacterial flagellar type III export gate complex” (PLoS Biology, 2017).

Experiment [1] concerns the target T1, His-St-FliP (Salmonella FliP with a hexahistidine tag inserted between Gln-22 and Leu-23) (Salmonella enterica) (UniProt P54700).
T1 sequence: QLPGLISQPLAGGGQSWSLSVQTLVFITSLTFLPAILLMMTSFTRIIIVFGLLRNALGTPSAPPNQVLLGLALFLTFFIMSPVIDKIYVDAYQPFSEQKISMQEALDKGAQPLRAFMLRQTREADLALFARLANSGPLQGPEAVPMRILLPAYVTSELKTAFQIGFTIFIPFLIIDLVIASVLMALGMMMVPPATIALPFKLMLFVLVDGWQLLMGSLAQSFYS
The experiment in a line: pull-down; Ni-NTA copurification with His-FliP from SJW1368 co-expressing FlhA, FlhB, FliO, His-FliP, HA-FliQ and FliR-FLAG; membranes solubilised with 1% LMNG; immunoblot (lane L of Fig 6B). In general terms: A western blot detects proteins with antibodies after separation by electrophoresis.

Experiment [2] concerns the target T1, His-St-FliP (Salmonella FliP with a hexahistidine tag inserted between Gln-22 and Leu-23) (Salmonella enterica). The experiment is described as follows: SEC; Ni-purified His-FliP or FliO/His-FliP complexes (wild type and mutants) on Superdex 200 10/300; 20 mM Tris-HCl pH 8.0, 300 mM NaCl, 2 mM EDTA, 5% glycerol, 0.1% DDM; both purified.
The target is the same in experiment [3]. The experiment is described as follows: pull-down; Ni-NTA copurification; His-FliP (wild type or mutant) co-expressed with FliO in Salmonella SJW1368; membranes solubilised with 1% DDM; 50 mM Tris-HCl pH 8.0, 300 mM NaCl, 5% glycerol, 20 mM imidazole, 0.1% DDM wash; 50-400 mM imidazole gradient; SDS-PAGE with CBB.
Experiment [4] addresses T2, FliG-His (Salmonella enterica) (UniProt P0A1J9).
T2 sequence: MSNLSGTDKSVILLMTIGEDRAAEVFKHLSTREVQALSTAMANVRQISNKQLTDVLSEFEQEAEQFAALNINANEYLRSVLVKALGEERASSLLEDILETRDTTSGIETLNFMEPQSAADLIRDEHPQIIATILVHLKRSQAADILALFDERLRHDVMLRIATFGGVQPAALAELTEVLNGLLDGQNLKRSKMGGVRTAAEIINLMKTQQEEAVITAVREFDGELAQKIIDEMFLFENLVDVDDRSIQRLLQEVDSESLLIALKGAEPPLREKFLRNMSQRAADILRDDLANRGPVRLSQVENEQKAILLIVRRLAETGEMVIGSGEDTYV
The experiment is described as follows: pull-down; Ni affinity copurification with FliG-His from SJW1368 co-expressing FlhA, FlhB, FliF, FliG-His, FliO, FliP, HA-FliQ and FliR-FLAG; membranes solubilised with 1% DDM.

Experiment [5] concerns the target T1, His-St-FliP (Salmonella FliP with a hexahistidine tag inserted between Gln-22 and Leu-23) (Salmonella enterica). The experiment is described as follows: SEC; Ni-purified material from LMNG-solubilised membranes on Superdex 200 10/300; 20 mM Tris-HCl pH 8.0, 150 mM NaCl, 2 mM EDTA, 5% glycerol, 0.01% LMNG; fractions immunoblotted; both purified. In general terms: Size exclusion chromatography separates by hydrodynamic size, large species first.

Experiment [6] shares this target. The experiment in a line: pull-down; copurification from Salmonella SJW1368 co-expressing His-FliP with other export gate proteins; membranes solubilised with 1% DDM; Ni affinity, then anti-FLAG M2 affinity (eluted with FLAG peptide), then SEC on Superdex 200 10/300; SDS-PAGE with CBB.
Experiment [7] deals with T3, FliR-FLAG (Salmonella enterica) (UniProt P54702).
T3 sequence: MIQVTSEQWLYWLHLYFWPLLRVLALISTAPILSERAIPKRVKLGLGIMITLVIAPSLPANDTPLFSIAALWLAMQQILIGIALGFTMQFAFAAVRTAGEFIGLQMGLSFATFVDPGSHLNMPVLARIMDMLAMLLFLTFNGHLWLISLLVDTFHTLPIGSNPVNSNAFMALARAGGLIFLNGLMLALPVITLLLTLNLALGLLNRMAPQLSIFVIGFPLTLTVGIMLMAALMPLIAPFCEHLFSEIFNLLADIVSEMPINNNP
The experiment is described as above.

For experiment [8], the target named is T1, His-St-FliP (Salmonella FliP with a hexahistidine tag inserted between Gln-22 and Leu-23) (Salmonella enterica). The experiment is described as follows: negative-stain electron microscopy with 2D class averaging; purified SEC peak fractions, 1.0% uranyl acetate, 100 kV; autocorrelation analysis for the rotational symmetry of the FliP ring; both purified.

Results are given in words; binding and its absence hold for the method and conditions named. For some assays here: Binding can be weak; no strength is given. Tags and fused reporters may be left off the sequences shown. For some assays here: Binding seen in cells or lysates may run through a third protein.

Turning to “FliO (Salmonella), co-expressed in Salmonella SJW1368 (from UniProt A0A2X4T7I8)”, the binding result is given as “binds” in experiment [1]; “binds” in experiment [2]; “binds” in experiment [3]; “no binding” in experiment [4]; “binds weakly” in experiment [5]; “binds” in experiment [6]. Further, the binding result in experiment [7] and in experiment [8] was “binds” each time.
